The supplement of paper PMC12823440, “Inhibitors supercharge kinase turnover through native proteolytic circuits” (Nature, 2025)
This is one part of the list. Hit calls seldom repeat between salt and free forms of one compound.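 Kinases were expressed as nanoluciferase fusions in K562 cells and luminescence was read every 4 h between 2 and 18 h as percent of control, DMSO set to 100% and a positive control to 0%. A time point counts as decreased when the signal drops significantly (2 sigma). The hit call is the authors' own, does not follow from the count of time points alone, and its rule is not shown.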

The chains behind the UniProt entries cited, without tags or fusion partners. Where a name states a change or a piece, a line headed by the entry shows the natural chain unless it says otherwise.
UniProt P28482, whole entry: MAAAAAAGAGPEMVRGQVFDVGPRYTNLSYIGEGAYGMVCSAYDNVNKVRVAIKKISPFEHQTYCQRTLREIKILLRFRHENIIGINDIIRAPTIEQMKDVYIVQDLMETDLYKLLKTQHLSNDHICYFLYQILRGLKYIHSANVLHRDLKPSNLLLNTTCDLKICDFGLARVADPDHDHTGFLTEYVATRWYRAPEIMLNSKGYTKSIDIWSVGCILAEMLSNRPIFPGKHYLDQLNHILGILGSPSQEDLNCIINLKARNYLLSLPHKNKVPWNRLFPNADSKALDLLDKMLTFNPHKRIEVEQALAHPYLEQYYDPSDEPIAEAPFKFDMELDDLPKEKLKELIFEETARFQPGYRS
UniProt Q05397, whole entry, looked up: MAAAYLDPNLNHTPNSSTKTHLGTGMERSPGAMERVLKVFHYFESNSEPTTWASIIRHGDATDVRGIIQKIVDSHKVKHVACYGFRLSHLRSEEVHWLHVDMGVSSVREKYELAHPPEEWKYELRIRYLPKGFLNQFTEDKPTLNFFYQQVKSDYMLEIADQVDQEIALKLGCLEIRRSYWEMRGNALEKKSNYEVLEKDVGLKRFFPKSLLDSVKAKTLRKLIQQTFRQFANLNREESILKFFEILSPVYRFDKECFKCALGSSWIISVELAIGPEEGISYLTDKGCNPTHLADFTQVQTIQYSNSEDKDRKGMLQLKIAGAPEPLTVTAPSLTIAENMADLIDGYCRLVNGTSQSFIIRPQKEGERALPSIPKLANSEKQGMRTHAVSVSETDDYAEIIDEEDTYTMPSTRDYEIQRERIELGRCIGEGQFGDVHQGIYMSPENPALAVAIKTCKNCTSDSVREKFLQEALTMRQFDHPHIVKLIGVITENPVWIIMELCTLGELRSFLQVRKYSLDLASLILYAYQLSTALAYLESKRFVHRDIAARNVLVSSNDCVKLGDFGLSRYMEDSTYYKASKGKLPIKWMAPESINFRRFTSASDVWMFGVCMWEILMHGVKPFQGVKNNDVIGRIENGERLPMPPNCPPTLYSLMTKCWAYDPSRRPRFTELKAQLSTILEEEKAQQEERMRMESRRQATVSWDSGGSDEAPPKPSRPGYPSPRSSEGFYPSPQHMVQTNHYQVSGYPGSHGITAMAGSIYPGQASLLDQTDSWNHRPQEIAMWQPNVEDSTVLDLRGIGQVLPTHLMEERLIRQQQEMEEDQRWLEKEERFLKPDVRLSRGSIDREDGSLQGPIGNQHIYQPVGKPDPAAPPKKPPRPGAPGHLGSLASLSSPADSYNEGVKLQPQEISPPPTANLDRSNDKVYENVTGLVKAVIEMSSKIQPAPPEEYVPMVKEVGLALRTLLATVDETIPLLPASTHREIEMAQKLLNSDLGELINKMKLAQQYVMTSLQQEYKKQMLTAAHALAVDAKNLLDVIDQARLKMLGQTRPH
UniProt P53350, whole entry: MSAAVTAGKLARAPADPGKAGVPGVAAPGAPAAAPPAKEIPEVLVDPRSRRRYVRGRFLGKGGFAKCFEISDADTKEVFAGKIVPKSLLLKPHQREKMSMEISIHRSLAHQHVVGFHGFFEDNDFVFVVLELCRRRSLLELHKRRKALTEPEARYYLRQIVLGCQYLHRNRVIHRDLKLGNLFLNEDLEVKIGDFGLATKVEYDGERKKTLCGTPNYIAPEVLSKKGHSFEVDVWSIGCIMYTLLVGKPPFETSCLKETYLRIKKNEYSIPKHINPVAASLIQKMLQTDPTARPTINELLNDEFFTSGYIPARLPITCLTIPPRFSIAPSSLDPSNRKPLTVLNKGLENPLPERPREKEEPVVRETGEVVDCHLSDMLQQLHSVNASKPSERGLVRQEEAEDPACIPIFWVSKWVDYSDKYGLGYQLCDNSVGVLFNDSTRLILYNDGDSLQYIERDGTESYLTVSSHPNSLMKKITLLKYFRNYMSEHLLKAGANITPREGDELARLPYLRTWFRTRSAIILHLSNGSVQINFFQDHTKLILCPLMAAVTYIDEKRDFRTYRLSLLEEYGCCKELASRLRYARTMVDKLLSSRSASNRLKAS
UniProt P29317, whole entry: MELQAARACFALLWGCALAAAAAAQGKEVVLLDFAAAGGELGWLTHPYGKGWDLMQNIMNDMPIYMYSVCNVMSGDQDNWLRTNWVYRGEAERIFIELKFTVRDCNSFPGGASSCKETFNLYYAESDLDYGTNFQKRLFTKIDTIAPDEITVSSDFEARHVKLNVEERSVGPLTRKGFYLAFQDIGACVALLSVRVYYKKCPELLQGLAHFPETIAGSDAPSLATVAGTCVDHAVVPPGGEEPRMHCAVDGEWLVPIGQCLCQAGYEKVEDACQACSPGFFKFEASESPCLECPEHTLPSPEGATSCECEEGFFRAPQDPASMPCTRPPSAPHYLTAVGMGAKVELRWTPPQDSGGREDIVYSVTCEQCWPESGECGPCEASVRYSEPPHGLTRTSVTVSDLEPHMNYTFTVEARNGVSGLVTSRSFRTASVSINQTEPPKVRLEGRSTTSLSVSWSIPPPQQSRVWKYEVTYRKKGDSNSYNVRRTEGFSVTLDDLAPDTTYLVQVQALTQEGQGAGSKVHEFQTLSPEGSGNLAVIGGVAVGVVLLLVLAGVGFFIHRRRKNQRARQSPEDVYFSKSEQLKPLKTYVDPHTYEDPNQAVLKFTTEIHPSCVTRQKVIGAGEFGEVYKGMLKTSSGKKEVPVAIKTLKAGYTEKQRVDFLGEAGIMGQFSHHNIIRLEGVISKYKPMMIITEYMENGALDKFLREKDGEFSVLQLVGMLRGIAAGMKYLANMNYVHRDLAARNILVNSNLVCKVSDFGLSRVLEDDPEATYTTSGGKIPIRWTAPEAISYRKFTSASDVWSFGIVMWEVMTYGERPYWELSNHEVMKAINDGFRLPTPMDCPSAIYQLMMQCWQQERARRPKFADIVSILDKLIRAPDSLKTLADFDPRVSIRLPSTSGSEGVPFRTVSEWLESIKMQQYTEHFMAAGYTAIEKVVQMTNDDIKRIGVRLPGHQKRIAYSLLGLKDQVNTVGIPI
UniProt P49137, whole entry, looked up: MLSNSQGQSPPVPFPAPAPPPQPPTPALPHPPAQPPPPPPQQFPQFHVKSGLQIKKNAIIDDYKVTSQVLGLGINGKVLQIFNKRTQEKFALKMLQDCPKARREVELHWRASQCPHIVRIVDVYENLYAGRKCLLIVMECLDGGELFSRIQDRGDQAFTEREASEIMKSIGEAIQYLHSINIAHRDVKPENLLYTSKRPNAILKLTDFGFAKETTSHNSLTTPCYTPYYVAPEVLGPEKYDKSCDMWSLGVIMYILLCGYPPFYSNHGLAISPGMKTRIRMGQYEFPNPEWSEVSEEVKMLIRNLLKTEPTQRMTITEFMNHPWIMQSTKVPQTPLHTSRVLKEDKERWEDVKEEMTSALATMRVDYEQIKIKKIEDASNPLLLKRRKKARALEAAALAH
UniProt P29597: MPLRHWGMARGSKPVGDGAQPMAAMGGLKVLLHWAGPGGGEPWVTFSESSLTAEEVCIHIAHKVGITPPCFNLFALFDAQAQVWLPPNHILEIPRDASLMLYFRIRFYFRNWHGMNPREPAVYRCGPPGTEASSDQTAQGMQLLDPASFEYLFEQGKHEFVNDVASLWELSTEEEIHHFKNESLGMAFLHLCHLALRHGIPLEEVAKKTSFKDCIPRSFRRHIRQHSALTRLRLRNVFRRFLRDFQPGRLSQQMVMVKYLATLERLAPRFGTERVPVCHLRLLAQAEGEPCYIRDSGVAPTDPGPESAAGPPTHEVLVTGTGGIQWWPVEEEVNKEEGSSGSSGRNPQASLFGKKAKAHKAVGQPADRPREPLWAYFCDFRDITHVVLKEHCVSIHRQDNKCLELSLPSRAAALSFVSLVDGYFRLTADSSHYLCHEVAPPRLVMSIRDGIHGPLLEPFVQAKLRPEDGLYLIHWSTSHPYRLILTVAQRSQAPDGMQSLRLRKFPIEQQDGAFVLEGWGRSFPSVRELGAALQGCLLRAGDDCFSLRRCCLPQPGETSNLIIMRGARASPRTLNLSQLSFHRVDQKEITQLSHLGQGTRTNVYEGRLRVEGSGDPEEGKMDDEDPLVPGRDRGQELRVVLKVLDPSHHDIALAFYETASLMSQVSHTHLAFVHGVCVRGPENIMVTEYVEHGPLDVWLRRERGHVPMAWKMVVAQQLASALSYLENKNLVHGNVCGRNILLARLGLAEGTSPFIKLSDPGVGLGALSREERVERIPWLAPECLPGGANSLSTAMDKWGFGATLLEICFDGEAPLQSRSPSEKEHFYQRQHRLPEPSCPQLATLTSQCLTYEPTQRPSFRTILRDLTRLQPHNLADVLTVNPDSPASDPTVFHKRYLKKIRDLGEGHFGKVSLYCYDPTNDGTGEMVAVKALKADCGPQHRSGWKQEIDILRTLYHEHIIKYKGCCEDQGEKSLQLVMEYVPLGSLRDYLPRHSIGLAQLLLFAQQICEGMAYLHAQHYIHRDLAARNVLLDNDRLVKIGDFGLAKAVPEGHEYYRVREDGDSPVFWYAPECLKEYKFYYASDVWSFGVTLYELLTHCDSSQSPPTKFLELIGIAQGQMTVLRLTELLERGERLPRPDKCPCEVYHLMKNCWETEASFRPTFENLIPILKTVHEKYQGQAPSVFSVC
UniProt Q15418, whole entry: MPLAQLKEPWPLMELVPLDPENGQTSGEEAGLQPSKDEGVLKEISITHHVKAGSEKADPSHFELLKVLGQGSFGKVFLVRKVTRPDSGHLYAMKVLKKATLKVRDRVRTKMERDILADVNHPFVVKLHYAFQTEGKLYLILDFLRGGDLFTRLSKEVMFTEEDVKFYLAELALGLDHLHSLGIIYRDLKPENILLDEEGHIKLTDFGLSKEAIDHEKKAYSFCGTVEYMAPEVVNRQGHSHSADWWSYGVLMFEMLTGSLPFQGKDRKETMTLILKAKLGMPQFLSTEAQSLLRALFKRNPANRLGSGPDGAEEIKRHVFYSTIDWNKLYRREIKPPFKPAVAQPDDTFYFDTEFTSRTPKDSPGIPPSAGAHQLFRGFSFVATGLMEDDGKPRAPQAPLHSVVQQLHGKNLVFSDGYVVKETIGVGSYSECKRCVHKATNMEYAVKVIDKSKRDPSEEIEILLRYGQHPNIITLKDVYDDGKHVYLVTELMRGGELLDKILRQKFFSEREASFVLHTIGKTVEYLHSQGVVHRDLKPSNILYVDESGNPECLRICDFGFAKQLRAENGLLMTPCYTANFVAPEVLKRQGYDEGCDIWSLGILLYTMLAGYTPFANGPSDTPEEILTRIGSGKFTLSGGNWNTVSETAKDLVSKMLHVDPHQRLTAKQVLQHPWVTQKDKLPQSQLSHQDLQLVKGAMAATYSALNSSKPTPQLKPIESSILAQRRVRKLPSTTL
UniProt P07333, whole entry: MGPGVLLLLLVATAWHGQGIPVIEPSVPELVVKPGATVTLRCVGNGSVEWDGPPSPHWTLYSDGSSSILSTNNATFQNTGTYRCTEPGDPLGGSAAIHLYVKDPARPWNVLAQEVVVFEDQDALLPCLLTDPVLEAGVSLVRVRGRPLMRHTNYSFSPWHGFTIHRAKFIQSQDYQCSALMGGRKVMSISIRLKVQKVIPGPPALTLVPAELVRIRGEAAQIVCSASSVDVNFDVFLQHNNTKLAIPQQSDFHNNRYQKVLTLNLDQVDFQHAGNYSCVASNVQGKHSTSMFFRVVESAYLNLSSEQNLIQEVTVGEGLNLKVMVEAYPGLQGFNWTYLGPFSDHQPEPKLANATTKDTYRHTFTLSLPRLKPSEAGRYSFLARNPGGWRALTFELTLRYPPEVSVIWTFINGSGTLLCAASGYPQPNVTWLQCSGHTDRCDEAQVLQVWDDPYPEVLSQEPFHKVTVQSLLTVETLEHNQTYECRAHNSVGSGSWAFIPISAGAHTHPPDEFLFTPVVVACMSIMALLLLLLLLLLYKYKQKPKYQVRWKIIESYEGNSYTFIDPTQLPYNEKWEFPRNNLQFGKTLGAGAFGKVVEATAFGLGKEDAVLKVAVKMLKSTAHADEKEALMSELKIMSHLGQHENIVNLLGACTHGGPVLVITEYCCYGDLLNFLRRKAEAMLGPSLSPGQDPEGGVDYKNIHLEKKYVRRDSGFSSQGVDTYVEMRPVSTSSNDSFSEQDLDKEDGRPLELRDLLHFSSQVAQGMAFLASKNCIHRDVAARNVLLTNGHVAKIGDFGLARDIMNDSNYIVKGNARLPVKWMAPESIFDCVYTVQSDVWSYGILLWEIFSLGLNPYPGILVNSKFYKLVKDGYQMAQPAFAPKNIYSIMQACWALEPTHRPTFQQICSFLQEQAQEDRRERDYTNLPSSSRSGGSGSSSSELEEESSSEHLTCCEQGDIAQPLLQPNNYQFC

Each target was assayed with O=C(Nc1cccc(Cl)c1)Nc1ncc(CCNc2ncnc3ccsc23)s1 [SNS-314 (mesylate)] (assay: number of time points (of 5) at which kinase-Nluc abundance scored as decreased, DMSO-normalised (count); higher = more persistent destabilization). Details: 10 µM; K562; 2-18 h.
In the case of NTRK2 (UniProt Q16620), the “number of time points” value is reported as 0.
SRC (UniProt P12931) was tested, and the “number of time points” value was 0.
In the case of BMX (UniProt P51813), the “number of time points” value is reported as 1.
With BTK (UniProt Q06187) the “number of time points” value was 0.
MAPK1 (UniProt P28482) was tested, and the “number of time points” value was 0.
In the case of SYK (UniProt P43405), the “number of time points” value is reported as 0.
With PTK2 (UniProt Q05397) the “number of time points” value was 0.
In the case of PLK1 (UniProt P53350), the “number of time points” value is reported as 1.
EPHA2 (UniProt P29317) was tested, and the “number of time points” value was 0.
In the case of MAPKAPK2 (UniProt P49137), the “number of time points” value is reported as 0.
With CDK2 (UniProt P24941) the “number of time points” value was 0.
For DDR1 (UniProt Q08345), the “number of time points” value was 0.
For NTRK3 (UniProt Q16288), the “number of time points” value was 0.
With ABL1 (UniProt P00519) the “number of time points” value was 0.
For HER2 (UniProt P04626), the “number of time points” value was 0.
For CSNK1A1 (UniProt P48729), the “number of time points” value was 0.
In the case of TYK2 (UniProt P29597), the “number of time points” value is reported as 0.
FGFR1 (UniProt P11362) was tested, and the “number of time points” value was 0.
In the case of RPS6KA1 (UniProt Q15418), the “number of time points” value is reported as 0.

What follows are targets tested with O=C(Nc1cccc(Nc2nccc(Nc3cccc(C(F)(F)F)c3)n2)c1)C1CC1 [Aurora kinase inhibitor-3] in the same assay as above. Details: 2.5 µM; K562; 2-18 h.
In the case of NTRK2 (UniProt Q16620), the “number of time points” value is reported as 0.
In the case of SRC (UniProt P12931), the “number of time points” value is reported as 0.
For BMX (UniProt P51813), the “number of time points” value was 0.
BTK (UniProt Q06187) was tested, and the “number of time points” value was 0.
For MAPK1 (UniProt P28482), the “number of time points” value was 0.
For CSF1R (UniProt P07333), the “number of time points” value was 0.
With EGFR_L858R (UniProt P00533) the “number of time points” value was 0.
For EGFR (UniProt P00533), the “number of time points” value was 0.
For SYK (UniProt P43405), the “number of time points” value was 0.
With PTK2 (UniProt Q05397) the “number of time points” value was 0.
For PLK1 (UniProt P53350), the “number of time points” value was 0.
With EGFR_G719S (UniProt P00533) the “number of time points” value was 0.
With EGFR_L861Q (UniProt P00533) the “number of time points” value was 0.
In the case of EPHA2 (UniProt P29317), the “number of time points” value is reported as 0.
For EGFR_T790M (UniProt P00533), the “number of time points” value was 0.
In the case of BLK (UniProt P51451), the “number of time points” value is reported as 0.
With MAPKAPK2 (UniProt P49137) the “number of time points” value was 0.
With CDK2 (UniProt P24941) the “number of time points” value was 0.
BRAF (UniProt P15056) was tested, and the “number of time points” value was 0.
For DDR1 (UniProt Q08345), the “number of time points” value was 0.
For NTRK3 (UniProt Q16288), the “number of time points” value was 0.
With ABL1 (UniProt P00519) the “number of time points” value was 0.
In the case of EGFR_L718V (UniProt P00533), the “number of time points” value is reported as 0.
In the case of HER2 (UniProt P04626), the “number of time points” value is reported as 0.
For CSNK1A1 (UniProt P48729), the “number of time points” value was 0.
With TYK2 (UniProt P29597) the “number of time points” value was 0.
For EGFR_G719S_T790M (UniProt P00533), the “number of time points” value was 0.
PDGFRB (UniProt P09619) was tested, and the “number of time points” value was 0.
In the case of FGFR1 (UniProt P11362), the “number of time points” value is reported as 0.
In the case of RPS6KA1 (UniProt Q15418), the “number of time points” value is reported as 0.

These targets were tested with O=C(O)c1ccc(Nc2ncc3c(n2)-c2ccc(Cl)cc2C(c2c(F)cccc2F)=NC3)cc1 in the same assay as above. Details: 10 µM; K562; 2-18 h.
With NTRK2 (UniProt Q16620) the “number of time points” value was 0.
In the case of BTK (UniProt Q06187), the “number of time points” value is reported as 0.
For MAPK1 (UniProt P28482), the “number of time points” value was 0.
With CSF1R (UniProt P07333) the “number of time points” value was 0.
In the case of EGFR_L858R (UniProt P00533), the “number of time points” value is reported as 0.
For EGFR (UniProt P00533), the “number of time points” value was 0.
SYK (UniProt P43405) was tested, and the “number of time points” value was 0.
In the case of PTK2 (UniProt Q05397), the “number of time points” value is reported as 0.
With PLK1 (UniProt P53350) the “number of time points” value was 0.
For AURKA (UniProt O14965), the “number of time points” value was 0.
EGFR_G719S (UniProt P00533) was tested, and the “number of time points” value was 0.
For EGFR_L861Q (UniProt P00533), the “number of time points” value was 0.
For EGFR_T790M (UniProt P00533), the “number of time points” value was 0.
For BLK (UniProt P51451), the “number of time points” value was 0.
In the case of MAPKAPK2 (UniProt P49137), the “number of time points” value is reported as 0.
In the case of CDK2 (UniProt P24941), the “number of time points” value is reported as 0.
In the case of BRAF (UniProt P15056), the “number of time points” value is reported as 0.
With NTRK3 (UniProt Q16288) the “number of time points” value was 0.
With EGFR_L718V (UniProt P00533) the “number of time points” value was 0.
With CSNK1A1 (UniProt P48729) the “number of time points” value was 0.
For TYK2 (UniProt P29597), the “number of time points” value was 0.
For EGFR_G719S_T790M (UniProt P00533), the “number of time points” value was 0.
With PDGFRB (UniProt P09619) the “number of time points” value was 0.
In the case of LCK (UniProt P06239), the “number of time points” value is reported as 0.
FGFR1 (UniProt P11362) was tested, and the “number of time points” value was 0.

Each target was assayed with O=C(c1ccc(/C=C/c2n[nH]c3ccccc23)cc1)N1CCNCC1 in the same assay as above. Details: 2.5 µM; K562; 2-18 h.
With NTRK2 (UniProt Q16620) the “number of time points” value was 0.
With BTK (UniProt Q06187) the “number of time points” value was 0.
With MAPK1 (UniProt P28482) the “number of time points” value was 0.
For CSF1R (UniProt P07333), the “number of time points” value was 0.
In the case of SYK (UniProt P43405), the “number of time points” value is reported as 0.
With PTK2 (UniProt Q05397) the “number of time points” value was 0.
For PLK1 (UniProt P53350), the “number of time points” value was 0.
In the case of AURKA (UniProt O14965), the “number of time points” value is reported as 0.
For EPHA2 (UniProt P29317), the “number of time points” value was 0.
BLK (UniProt P51451) was tested, and the “number of time points” value was 0.
In the case of MAPKAPK2 (UniProt P49137), the “number of time points” value is reported as 0.
With BRAF (UniProt P15056) the “number of time points” value was 0.
For DDR1 (UniProt Q08345), the “number of time points” value was 0.
With ABL1 (UniProt P00519) the “number of time points” value was 0.
In the case of HER2 (UniProt P04626), the “number of time points” value is reported as 0.
In the case of CSNK1A1 (UniProt P48729), the “number of time points” value is reported as 0.
For TYK2 (UniProt P29597), the “number of time points” value was 0.
PDGFRB (UniProt P09619) was tested, and the “number of time points” value was 0.
LCK (UniProt P06239) was tested, and the “number of time points” value was 0.
FGFR1 (UniProt P11362) was tested, and the “number of time points” value was 0.
With RPS6KA1 (UniProt Q15418) the “number of time points” value was 0.
